US9962341B2, “Active pharmaceutical ingredient (API) comprising cannabinoids for use in the treatment of cancer” (GW Pharma Limited, priority 2014, dated 2018)

Test system: MDA-MB-231
Assay: Cell viability (CellTiter-Blue, 72 h), MDA-MB-231 breast cancer cells
Type: cell-based
Conditions: MDA-MB-231, 1% FBS
Experimental: The cell lines tested in this Example were as follows. Breast cancer: MDA-MB-231; SK-BR3; and BT474. Liver cancer: HepG2.
The phytocannabinoids were tested alone and in various ratioed combinations in media containing final concentrations of 10% and 1% foetal bovine serum at 72 h for the breast and prostate cancer lines and 1% foetal bovine serum for the liver cancer line HepG2.
Each tumour cell line was maintained in vitro in RPMI 1640+10% heat inactivated FBS and 2 mM L-glutamine (growth media) at 37° C. in 5% CO2 and humidified conditions. The cells were harvested, washed, re-suspended into growth medium and counted. The cells were re-suspended into assay media (RPMI 1640+5% heat inactivated FBS+ and 2 mM L-glutamine) at 8×104-2×10^5 cells/ml (dependent upon cell type) and plated into the middle 240 wells of 384 well tissue culture plates (Corning CellBind, black-wall plates) 12.5 μl/well aliquots; 62.5 μl of growth media was aliquoted into the outer wells. There were 4 plates for each cell line. The plates were incubated overnight at 37° C., in 5% humidified CO2.
The phytocannabinoid test compounds were prepared in 100% DMSO vehicle at a stock concentration of 10 mM.
Starting with the 10 mM stock, the compounds were diluted to 125 μM in FBS-free growth media.
These were diluted in FBS-free growth media to 125 μM before serial dilution.
5 volumes of CBD 10 mM stock was added to 1 volume of the other agent (also at 10 mM) and 4 volumes of DMSO. This made a final concentration of 5 mM:1 mM. This was then diluted in FBS-free growth media so the top concentration of CBD would be 125 μM (before serial dilution). Each compound and compound combination stock was serially diluted in FBS-free growth media (containing 1.25% v/v DMSO) from 125 μM to 41.7, 13.89, 4.63, 1.54, 0.514, 0.171, 0.057 and 0.019 μM (1.25× final assay concentrations). Vehicle was prepared at equivalent dilutions in assay media. The top final concentration of compound in the assay was always 100 μM so CBD5:1CBG was 100 μM CBD and 20 μM CBG.
Taxotere SOC was prepared at a stock concentration of 1 mM in 100% DMSO. Taxotere was serially diluted from the stock solution into FBS-free growth media to 12.5 μM, then serially diluted in FBS-free growth media containing 1.25% DMSO to 4.17, 1.39, 0.46, 0.154, 0.051, 0.017, 0.006, 0.002 μM (1.25× final assay concentrations).
The plates were incubated for 72 h at 37° C. in 5% humidified CO2. To develop the plates, at 72 h, 10 μl of CellTiter-Blue™ reagent was added to each test/blank well. The plates were incubated at 37° C., 5% humidified CO2. Fluorescence was measured using a Flex II Station plate reader (570 nm excitation wavelength, 600 nm emission wavelength, 590 nm cut-off) after 3 h. […]
The raw data values expressed in relative fluorescent units were normalised to the vehicle for each individual plate and any reduction in fluorescence indicated a decrease in viability.
The data were analysed in GraphPad PRISM using a non-linear sigmoidal plot with variable slope (asymmetric five point linear regression) and where possible an IC50 value for each single compound and combination was generated. […]
The data was formatted in Excel for each assay plate so that the average effect at each concentration for each separate phytocannabinoid and each of the combinations could be determined. […]

Structure (SMILES) | m (shape parameter of dose effect curve)
CCCCCc1cc(O)c(C/C=C(\C)CCC=C(C)C)c(O)c1C(=O)O [CBGA, Cannabigerolic acid] | 2.10
CCCCCc1cc(O)c(C/C=C(\C)CCC=C(C)C)c(O)c1 [CBG, Cannabigerol] | 2.11
CCCc1cc(O)c2c(c1)OC(C)(C)[C@@H]1CCC(C)=C[C@@H]21 [THCV, Tetrahydrocannabivarin] | 2.21
C=C(C)[C@@H]1CCC(C)=C[C@H]1c1c(O)cc(CCCCC)c(C(=O)O)c1O [CBDA, Cannabidiolic acid] | 0.86
C=C(C)[C@@H]1CCC(C)=C[C@H]1c1c(O)cc(CCCCC)cc1O [CBD, Cannabidiol] | 0.78
